This is one part of the list.

Amino acid sequences for entries named in this document (tags omitted). A change or cut given only in a name is not applied to a line headed by its entry.
UniProt O75935, whole entry, looked up: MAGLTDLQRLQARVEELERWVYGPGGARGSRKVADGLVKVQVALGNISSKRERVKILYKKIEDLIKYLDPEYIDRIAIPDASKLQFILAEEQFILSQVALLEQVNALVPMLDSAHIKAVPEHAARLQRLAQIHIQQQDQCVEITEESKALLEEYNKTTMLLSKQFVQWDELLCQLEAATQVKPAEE
UniProt Q5T1V6: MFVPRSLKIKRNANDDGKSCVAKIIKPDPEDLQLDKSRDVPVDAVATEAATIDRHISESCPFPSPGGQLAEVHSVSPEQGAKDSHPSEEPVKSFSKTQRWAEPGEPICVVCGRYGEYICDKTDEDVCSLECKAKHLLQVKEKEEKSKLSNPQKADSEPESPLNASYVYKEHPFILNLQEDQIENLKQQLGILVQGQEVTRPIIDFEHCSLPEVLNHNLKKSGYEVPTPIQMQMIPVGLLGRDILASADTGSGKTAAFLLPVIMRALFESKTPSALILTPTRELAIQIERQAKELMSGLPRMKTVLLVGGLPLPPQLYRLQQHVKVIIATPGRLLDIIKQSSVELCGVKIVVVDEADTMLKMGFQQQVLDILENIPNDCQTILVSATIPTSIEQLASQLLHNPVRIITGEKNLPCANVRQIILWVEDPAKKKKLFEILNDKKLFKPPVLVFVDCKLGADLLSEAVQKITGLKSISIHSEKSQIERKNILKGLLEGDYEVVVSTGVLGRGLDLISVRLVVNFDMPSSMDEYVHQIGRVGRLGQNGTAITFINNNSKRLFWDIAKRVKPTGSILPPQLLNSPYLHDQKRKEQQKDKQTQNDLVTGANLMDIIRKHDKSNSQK
UniProt Q5VZ89: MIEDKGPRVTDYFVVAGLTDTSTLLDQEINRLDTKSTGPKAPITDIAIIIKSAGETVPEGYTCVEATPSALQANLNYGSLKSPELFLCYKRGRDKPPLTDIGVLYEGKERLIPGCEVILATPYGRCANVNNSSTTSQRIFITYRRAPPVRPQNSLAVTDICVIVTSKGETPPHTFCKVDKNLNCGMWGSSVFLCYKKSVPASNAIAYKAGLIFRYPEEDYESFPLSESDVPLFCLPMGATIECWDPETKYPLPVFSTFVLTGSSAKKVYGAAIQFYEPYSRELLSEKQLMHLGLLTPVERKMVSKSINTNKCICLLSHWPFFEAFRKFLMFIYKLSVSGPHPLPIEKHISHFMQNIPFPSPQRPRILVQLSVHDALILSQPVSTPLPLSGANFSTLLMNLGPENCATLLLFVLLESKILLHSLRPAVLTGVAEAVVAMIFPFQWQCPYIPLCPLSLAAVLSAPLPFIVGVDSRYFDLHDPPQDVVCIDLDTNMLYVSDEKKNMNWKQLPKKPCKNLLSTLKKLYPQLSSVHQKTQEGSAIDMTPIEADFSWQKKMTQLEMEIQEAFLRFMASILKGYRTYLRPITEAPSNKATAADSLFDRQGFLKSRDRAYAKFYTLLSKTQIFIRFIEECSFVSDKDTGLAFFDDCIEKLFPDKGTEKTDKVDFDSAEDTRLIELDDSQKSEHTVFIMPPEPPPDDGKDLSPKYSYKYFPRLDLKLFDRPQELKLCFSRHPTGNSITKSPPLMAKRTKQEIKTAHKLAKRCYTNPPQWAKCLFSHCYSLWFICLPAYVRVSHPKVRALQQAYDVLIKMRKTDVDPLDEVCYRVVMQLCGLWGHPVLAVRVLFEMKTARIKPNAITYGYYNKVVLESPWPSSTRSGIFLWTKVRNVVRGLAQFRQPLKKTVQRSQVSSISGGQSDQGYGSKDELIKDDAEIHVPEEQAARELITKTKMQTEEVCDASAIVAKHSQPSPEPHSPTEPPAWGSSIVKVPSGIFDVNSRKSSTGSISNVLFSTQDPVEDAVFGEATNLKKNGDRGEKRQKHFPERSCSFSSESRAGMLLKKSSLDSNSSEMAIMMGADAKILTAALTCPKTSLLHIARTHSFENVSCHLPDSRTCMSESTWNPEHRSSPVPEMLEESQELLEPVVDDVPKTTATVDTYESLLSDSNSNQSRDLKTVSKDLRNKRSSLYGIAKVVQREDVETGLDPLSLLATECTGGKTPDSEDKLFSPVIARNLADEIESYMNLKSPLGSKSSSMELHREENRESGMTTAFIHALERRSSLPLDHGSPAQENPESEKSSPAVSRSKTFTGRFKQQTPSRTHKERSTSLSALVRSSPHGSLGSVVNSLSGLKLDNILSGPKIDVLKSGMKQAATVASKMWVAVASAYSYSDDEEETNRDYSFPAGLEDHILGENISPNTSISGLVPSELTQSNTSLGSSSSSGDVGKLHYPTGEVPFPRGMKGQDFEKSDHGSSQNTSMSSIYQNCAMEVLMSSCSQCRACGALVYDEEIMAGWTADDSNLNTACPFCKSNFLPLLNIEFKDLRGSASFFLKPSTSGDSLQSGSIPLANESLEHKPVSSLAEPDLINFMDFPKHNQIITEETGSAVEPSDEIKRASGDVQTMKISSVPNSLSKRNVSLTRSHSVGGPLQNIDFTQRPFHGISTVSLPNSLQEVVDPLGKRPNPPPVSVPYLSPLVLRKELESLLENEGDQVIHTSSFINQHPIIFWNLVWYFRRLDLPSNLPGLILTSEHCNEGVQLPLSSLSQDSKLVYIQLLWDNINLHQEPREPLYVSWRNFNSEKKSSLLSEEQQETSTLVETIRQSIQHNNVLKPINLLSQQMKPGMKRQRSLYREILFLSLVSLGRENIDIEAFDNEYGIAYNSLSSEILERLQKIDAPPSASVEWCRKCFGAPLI
UniProt Q14118: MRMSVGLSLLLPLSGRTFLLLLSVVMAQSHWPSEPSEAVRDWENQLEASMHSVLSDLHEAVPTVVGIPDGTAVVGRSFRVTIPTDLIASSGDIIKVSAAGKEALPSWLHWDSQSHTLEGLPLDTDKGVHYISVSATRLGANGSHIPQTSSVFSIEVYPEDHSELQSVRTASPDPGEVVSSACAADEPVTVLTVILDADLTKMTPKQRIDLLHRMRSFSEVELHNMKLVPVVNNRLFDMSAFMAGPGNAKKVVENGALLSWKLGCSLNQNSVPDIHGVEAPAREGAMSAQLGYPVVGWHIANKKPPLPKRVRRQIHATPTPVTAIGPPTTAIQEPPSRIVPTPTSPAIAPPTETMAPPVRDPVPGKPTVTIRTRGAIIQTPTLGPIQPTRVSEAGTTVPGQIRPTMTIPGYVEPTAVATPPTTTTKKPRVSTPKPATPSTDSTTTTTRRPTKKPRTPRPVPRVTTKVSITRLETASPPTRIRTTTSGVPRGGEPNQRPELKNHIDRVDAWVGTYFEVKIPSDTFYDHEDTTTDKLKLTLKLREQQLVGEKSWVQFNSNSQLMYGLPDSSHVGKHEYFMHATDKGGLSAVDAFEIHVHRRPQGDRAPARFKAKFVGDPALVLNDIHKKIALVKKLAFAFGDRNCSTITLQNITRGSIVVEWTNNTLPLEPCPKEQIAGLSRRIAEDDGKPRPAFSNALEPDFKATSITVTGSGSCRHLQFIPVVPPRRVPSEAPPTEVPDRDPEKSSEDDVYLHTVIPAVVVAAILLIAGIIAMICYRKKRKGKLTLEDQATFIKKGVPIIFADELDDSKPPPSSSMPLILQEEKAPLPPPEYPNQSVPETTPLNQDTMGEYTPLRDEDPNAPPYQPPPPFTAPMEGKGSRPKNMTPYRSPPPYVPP
UniProt Q96EP5: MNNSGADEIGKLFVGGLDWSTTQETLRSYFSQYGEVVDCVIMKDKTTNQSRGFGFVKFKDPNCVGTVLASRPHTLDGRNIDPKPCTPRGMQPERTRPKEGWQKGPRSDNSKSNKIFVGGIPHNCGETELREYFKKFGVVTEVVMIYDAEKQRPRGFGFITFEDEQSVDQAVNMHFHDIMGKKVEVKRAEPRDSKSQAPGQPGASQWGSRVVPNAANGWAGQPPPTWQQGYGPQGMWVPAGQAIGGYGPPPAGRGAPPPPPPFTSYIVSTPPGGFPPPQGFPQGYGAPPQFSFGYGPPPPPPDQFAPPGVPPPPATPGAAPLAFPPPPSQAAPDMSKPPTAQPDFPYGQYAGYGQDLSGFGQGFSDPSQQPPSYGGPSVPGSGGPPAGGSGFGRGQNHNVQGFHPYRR
UniProt O95865: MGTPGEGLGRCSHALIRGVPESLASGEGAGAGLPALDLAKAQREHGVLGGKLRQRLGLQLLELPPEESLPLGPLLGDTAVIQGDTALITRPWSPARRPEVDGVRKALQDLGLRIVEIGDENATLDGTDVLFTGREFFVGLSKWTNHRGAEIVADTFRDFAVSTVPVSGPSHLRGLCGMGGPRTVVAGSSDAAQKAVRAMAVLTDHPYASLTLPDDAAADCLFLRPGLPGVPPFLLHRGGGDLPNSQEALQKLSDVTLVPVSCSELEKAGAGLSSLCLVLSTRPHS
UniProt P17661, whole entry, looked up: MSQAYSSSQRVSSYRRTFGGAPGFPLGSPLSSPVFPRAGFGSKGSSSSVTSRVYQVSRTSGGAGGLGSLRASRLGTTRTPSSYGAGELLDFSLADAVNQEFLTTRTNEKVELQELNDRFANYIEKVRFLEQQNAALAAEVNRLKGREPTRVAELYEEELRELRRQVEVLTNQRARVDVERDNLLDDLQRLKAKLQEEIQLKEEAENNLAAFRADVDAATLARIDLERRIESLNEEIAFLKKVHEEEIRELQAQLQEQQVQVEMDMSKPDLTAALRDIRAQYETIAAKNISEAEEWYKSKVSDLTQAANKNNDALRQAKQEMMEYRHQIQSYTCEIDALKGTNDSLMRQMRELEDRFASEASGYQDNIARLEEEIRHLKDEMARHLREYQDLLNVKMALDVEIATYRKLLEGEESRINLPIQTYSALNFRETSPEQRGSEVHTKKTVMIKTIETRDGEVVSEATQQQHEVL
UniProt Q7Z4W1: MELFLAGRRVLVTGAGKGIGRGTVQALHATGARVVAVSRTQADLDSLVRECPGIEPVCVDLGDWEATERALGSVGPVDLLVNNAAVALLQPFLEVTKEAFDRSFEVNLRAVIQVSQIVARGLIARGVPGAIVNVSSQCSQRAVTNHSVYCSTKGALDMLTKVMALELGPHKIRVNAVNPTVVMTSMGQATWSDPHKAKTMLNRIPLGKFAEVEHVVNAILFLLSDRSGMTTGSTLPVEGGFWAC
UniProt Q9Y6V7: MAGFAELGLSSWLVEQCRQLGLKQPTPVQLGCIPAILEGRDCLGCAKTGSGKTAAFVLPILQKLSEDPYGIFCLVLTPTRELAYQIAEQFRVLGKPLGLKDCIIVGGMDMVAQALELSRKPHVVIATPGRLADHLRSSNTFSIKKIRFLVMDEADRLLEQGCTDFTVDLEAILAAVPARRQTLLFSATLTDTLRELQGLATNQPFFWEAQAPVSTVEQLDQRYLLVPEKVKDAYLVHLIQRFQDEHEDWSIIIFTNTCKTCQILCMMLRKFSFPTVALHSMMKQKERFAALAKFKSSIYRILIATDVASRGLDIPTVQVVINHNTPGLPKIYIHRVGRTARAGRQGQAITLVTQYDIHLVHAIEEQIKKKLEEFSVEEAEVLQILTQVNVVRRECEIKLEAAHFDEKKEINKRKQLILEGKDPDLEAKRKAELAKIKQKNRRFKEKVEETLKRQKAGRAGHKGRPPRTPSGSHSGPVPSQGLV
UniProt Q9BTE7: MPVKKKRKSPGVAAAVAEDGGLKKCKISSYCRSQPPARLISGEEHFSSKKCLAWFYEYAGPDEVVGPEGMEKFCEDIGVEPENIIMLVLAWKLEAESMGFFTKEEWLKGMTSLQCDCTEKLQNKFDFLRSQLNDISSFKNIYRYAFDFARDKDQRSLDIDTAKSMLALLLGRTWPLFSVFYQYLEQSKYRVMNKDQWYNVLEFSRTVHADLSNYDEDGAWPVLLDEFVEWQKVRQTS
UniProt Q9NUI1: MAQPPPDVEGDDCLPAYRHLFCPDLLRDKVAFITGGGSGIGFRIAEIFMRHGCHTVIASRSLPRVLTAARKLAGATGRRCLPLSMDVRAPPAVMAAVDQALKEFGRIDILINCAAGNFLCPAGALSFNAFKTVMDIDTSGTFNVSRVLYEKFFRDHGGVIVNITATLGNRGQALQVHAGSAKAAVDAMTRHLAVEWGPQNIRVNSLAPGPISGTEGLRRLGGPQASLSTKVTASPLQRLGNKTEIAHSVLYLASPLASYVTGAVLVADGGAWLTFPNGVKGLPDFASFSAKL
UniProt O00273: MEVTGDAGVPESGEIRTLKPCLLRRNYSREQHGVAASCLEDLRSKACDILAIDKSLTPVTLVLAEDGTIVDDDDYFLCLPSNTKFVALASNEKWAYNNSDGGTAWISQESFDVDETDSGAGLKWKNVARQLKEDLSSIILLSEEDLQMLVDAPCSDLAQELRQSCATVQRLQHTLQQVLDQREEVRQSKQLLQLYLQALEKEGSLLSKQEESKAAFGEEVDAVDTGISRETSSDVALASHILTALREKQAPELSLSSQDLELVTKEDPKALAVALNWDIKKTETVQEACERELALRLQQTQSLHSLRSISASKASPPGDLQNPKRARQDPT

Compound in the test: CCn1cc(-c2ccnc3[nH]c(-c4cccc(CN(C)C)c4)cc23)c(-c2ccc(NC(=O)N(C)C)cc2)n1
As to the kind of experiment: log2 fold change, soluble protein after heating vs DMSO (PISA); higher = thermal stabilisation; K562 lysate, 10 uM; active = over 0.2 and 3.5 SD of the protein, either way, in both replicates (recomputed). In a few lines: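 To prepare the extract, K562 pellets were dounce-homogenised in PBS pH 7.4 with 1 mM MgCl2, giving crude material at 1 mg/mL protein. This was treated with 10 μM compound for 30 min, then heated in aliquots for 3 min over 48°C-58°C before pooling and addition of NP-40 to 0.5% at 4°C. Centrifugation at 21,000xg for 90 min left soluble protein in the supernatant, which TMTpro 16plex LC-MS/MS quantified with equalised channel sums. Results are log-two fold changes in thermal stability compared with solvent controls, from duplicates.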
For the target DDX39A (UniProt O00148), the log2 fold change is inactive: -0.041. The result for DCTN3 (UniProt O75935) reads inactive: 0.007. The result for DDX20 (UniProt Q9UHI6) reads inactive: -0.037. In the case of DDX59 (UniProt Q5T1V6) it was inactive: -0.008; in that of DEK (UniProt P35659), inactive: -0.043.

For the target DENND4C (UniProt Q5VZ89), the log2 fold change was inactive: -0.068. The result for DCP2 (UniProt Q8IU60) reads inactive: 0.059; that for CYP24A1 (UniProt Q07973), active: -0.499; that for DCUN1D1 (UniProt Q96GG9), inactive: -0.034. As to DAG1 (UniProt Q14118), the log2 fold change was inactive: -0.118. With DAZAP1 (UniProt Q96EP5), the log2 fold change was inactive: 0.129. In the case of DAB2 (UniProt P98082), the log2 fold change is inactive: 0.001.

Take DDAH2 (UniProt O95865): the log2 fold change was inactive: 0.093. As for DES (UniProt P17661), the log2 fold change is active: -0.434. On to DDX6 (UniProt P26196), for which the log2 fold change is inactive: -0.05. On to DCAF6 isoform 3 (UniProt Q58WW2), for which the log2 fold change is inactive: 0.095. In the case of DCXR (UniProt Q7Z4W1) it was inactive: -0.037; in that of DDX49 (UniProt Q9Y6V7), inactive: -0.087; in that of DENND6A (UniProt Q8IWF6), inactive: 0.017. Turning to DCUN1D5 (UniProt Q9BTE7), the log2 fold change is inactive: -0.015. In the case of DECR2 (UniProt Q9NUI1) it was inactive: -0.005; in that of DBN1 (UniProt Q16643), inactive: 0.007; in that of DDX55 (UniProt Q8NHQ9), inactive: 0.009.

Take DFFA (UniProt O00273): the log2 fold change is inactive: 0.011.

Values taken from the supplement of paper PMC10849652.
